# Assay results published in PubChem BioAssay AID248 (DTP/NCI, 2004).
# The list does not hold the whole screen: it gathers tests that were run many times, whatever their T/C, doses with no T/C, and many T/C values between a quarter and a half above the control. Further doses and runs are listed elsewhere. T/C is the treated group as % of the vehicle group. Some entries give survivors of the animals treated and no T/C: the source holds a T/C of zero for them, seemingly a mark for toxic or unscored doses. Some survivor counts are full or nearly so, which does not show that the dose was tolerated: the source hardly ever lists a survival T/C far under the control, and the zero likely stands for such cases as well. Counts of survivors are from the toxicity check (mostly the fifth day) where no day follows; animals may have died later. Schedule codes are those of the source, taken here to give the interval after Q, in days (D) or hours (H), and the number of doses after X. Some schedules carry Z or #; the key to these is not given. For survival time, the PubChem record calls one and a half times the control and up active, and a quarter to a half above the control has no call in these data; cut-offs in other NCI protocols can differ. Some T/C values carry the count of animals alive at the toxicity check (mostly the fifth day); without a count, all were alive then.
# System: L1210 leukemia ip in BDF1 mice, survival T/C
# Experiment: NCI In Vivo Anticancer Drug Screen. Data for tumor model L1210 Leukemia (intraperitoneal) in B6D2F1 (BDF1) mice
# Conditions: T/C endpoint: mean survival time, higher T/C = longer survival
# [1] = dose: 200.0 mg/kg/injection, schedule: Q04DX002 (ip), vehicle: saline with Tween-80
# [2] = dose: 400.0 mg/kg/injection, schedule: Q04DX002 (ip), vehicle: saline with Tween-80
# [3] = dose: 75.0 mg/kg/injection, schedule: Q01DX001 (ip), vehicle: saline
# [4] = dose: 300.0 mg/kg/injection, schedule: Q01DX001 (ip), vehicle: saline
# [5] = dose: 200.0 mg/kg/injection, schedule: Q04DX003 (ip), vehicle: saline with Tween-80
# [6] = dose: 400.0 mg/kg/injection, schedule: Q04DX003 (ip), vehicle: saline with Tween-80
# [7] = dose: 200.0 mg/kg/injection, schedule: Q01DX009 (ip), vehicle: saline
# [8] = dose: 400.0 mg/kg/injection, schedule: Q04DX003 (ip), vehicle: saline
# [9] = dose: 200.0 mg/kg/injection, schedule: Q04DX003 (ip), vehicle: saline
# [10] = dose: 400.0 mg/kg/injection, schedule: Q04DX003 (ip), vehicle: Klucel (hydroxypropylcellulose) (HPC)
# [11] = dose: 400.0 mg/kg/injection, schedule: Q01DX001 (ip), vehicle: saline
# [12] = dose: 150.0 mg/kg/injection, schedule: Q01DX001 (ip), vehicle: saline
# [13] = dose: 100.0 mg/kg/injection, schedule: Q01DX009 (ip), vehicle: saline with Tween-80
# [14] = dose: 400.0 mg/kg/injection, schedule: Q01DX009 (ip), vehicle: saline with Tween-80
# [15] = dose: 200.0 mg/kg/injection, schedule: Q01DX009 (ip), vehicle: saline with Tween-80
compound,measurement,setting,value
c1ccc(OCC2(N3CCCCC3)CCCC2)cc1,survivor count,[1],1 of 3
same,survivor count,[2],2 of 3
COc1ccc(Nc2nc(N)nc(N)c2N)cc1,survivor count,"dose: 200.0 mg/kg/injection, schedule: Q01DX Z (ip), vehicle: saline",0 of 6
OB1[O][Sn]([c]2ccccc2)([c]2ccccc2)[O]1,survivor count,"dose: 100.0 mg/kg/injection, schedule: Q04DX002 (ip), vehicle: saline with Tween-80",1 of 3
same,survivor count,[1],0 of 3
same,survivor count,[2],0 of 3
O=C1c2ccccc2C(=O)c2c(NC(=O)C(Cl)CCl)cccc21 (stereo unspecified),survivor count,[3],6 of 6
same,survivor count,[4],6 of 6
O=C(/C=C/c1cccc([N+](=O)[O-])c1)CCl,survivor count,[5],1 of 6
same,survivor count,[6],0 of 6
COc1cc2c(C)cc(=O)oc2cc1O,survivor count,"dose: 200.0 mg/kg/injection, schedule: Q01DX001 (ip), vehicle: carboxymethylcellulose (CMC)",4 of 4
CC1(O)Cn2c(nc3nccnc32)S1 (stereo unspecified),survivor count,[7],0 of 6
same,survivor count,[8],3 of 6
COC(=O)c1cn(C2OC(CO)C(O)C2O)c2ncnc(N)c12 (stereo unspecified),survivor count,"dose: 80.0 mg/kg/injection, schedule: Q01DX001 (ip), vehicle: water",6 of 6
CC1=CC(c2ccc3c(c2)OCO3)c2c(c3ccccc3oc2=O)O1 (stereo unspecified),survivor count,"dose: 100.0 mg/kg/injection, schedule: Q01DX009 (ip), vehicle: water",1 of 6
same,survivor count,"dose: 200.0 mg/kg/injection, schedule: Q01DX009 (ip), vehicle: water",2 of 6
same,survivor count,"dose: 400.0 mg/kg/injection, schedule: Q01DX009 (ip), vehicle: water",1 of 6
O=[N+]([O-])c1ccc(Cl)nc1,survivor count,"dose: 400.0 mg/kg/injection, schedule: Q01DX009 (ip), vehicle: saline sonified",3 of 6
O=C(Nc1cccc(C2=NCCCN2)c1)c1ccc(C(=O)Nc2cccc(C3=NCCCN3)c2)c([N+](=O)[O-])c1,survivor count,"dose: 1.0 mg/kg/injection, schedule: Q01DX015 (ip), vehicle: water",0 of 6
same,survivor count,"dose: 2.0 mg/kg/injection, schedule: Q01DX015 (ip), vehicle: water",0 of 6
same,survivor count,"dose: 4.0 mg/kg/injection, schedule: Q01DX015 (ip), vehicle: water",0 of 6
CC1CC(O)C([N+](=O)[O-])C(O)C1 (stereo unspecified),T/C,"dose: 25.0 mg/kg/injection, schedule: Q01DX009 (ip), vehicle: saline",132 % of control
same,survivor count,"dose: 50.0 mg/kg/injection, schedule: Q01DX009 (ip), vehicle: saline",1 of 6
Cc1ccc(N2C(=O)CC(Sc3ccccc3N)C2=O)cc1 (stereo unspecified),survivor count,[9],6 of 6
Cc1ccc(N2C=[N+](C)c3ccc(C)cc3C2)cc1,survivor count,[10],5 of 6
O=C(CC(NC(=O)OCc1ccccc1)C(=O)OCc1ccccc1)OCc1ccccc1 (stereo unspecified),survivor count,"dose: 100.0 mg/kg/injection, schedule: Q01DX009 (ip), vehicle: Klucel (hydroxypropylcellulose) (HPC)",6 of 6
CCCCCCCCCCCCCC(=O)O (tested in a mixture with another compound),survivor count,"dose: 200.0 mg/kg/injection, schedule: Q01DX001 (ip), vehicle: saline",0 of 4
same,survivor count,[11],0 of 4
Cc1cccc(C[As](C)(=O)O)c1,survivor count,[9],2 of 6
same,survivor count,[8],0 of 6
N#Cc1oc2ccccc2c1OC(=O)C(F)(F)F,survivor count,[6],0 of 6
CN1C2CC(OC3CCCCO3)C(C2)N1C (stereo unspecified),T/C,[5],131 % of control
COc1ccc(Cl)cc1C/C=N/NC(=O)C[N+](C)(C)C,survivor count,[12],0 of 6
same,survivor count,[4],0 of 6
CNCCCNCC(Cc1ccccc1)c1ccccc1 (stereo unspecified),survivor count,"dose: 200.0 mg/kg/injection, schedule: Q04DX002 (ip), vehicle: saline",0 of 3
same,survivor count,"dose: 400.0 mg/kg/injection, schedule: Q04DX002 (ip), vehicle: saline",0 of 3
O=C(O)C1CC12c1ccccc1-c1ccccc12 (stereo unspecified),survivor count,[11],3 of 6
CCCCCCCCN(C=O)CCCCCCCC,survivor count,[1],1 of 3
same,survivor count,[2],0 of 3
CCCCCCCCOP(=O)(OCCCCCCCC)c1ccccc1,survivor count,[3],6 of 6
same,survivor count,[12],3 of 6
same,survivor count,[4],1 of 6
O[Si](O)([O][Sn]([c]1ccccc1)([c]1ccccc1)[c]1ccccc1)[O][Sn]([c]1ccccc1)([c]1ccccc1)[c]1ccccc1,survivor count,"dose: 50.0 mg/kg/injection, schedule: Q01DX009 (ip), vehicle: saline with Tween-80",0 of 3
same,survivor count,[13],0 of 3
same,survivor count,"dose: 100.0 mg/kg/injection, schedule: Q01DX009 (ip), vehicle: saline",3 of 3
same,survivor count,[7],0 of 3
CC1CC(C)(C)N=C(C(C)CC(C)(C)C)O1 (stereo unspecified),survivor count,[8],0 of 6
CCC1CN2C(=N1)c1ccccc1-c1cc(Cl)ccc12 (stereo unspecified),T/C,"dose: 40.0 mg/kg/injection, schedule: Q01DX009 (ip), vehicle: Klucel (hydroxypropylcellulose) (HPC)",131 % of control [5 of 6 alive]
same,T/C,"dose: 40.0 mg/kg/injection, schedule: Q01DX009 (ip), vehicle: saline",138 % of control
same,T/C,"dose: 50.0 mg/kg/injection, schedule: Q01DX009 (ip), vehicle: suspension in saline",139 % of control
same,survivor count,"dose: 80.0 mg/kg/injection, schedule: Q04DX003 (ip), vehicle: Klucel (hydroxypropylcellulose) (HPC)",1 of 6
same,survivor count,"dose: 100.0 mg/kg/injection, schedule: Q04DX003 (ip), vehicle: Klucel (hydroxypropylcellulose) (HPC)",6 of 6
same,survivor count,"dose: 200.0 mg/kg/injection, schedule: Q04DX003 (ip), vehicle: Klucel (hydroxypropylcellulose) (HPC)",0 of 6
same,survivor count,[10],0 of 6
CC1(c2cccs2)C(=O)N(Cl)C(=O)N1Cl (stereo unspecified),survivor count,[9],3 of 6
same,survivor count,[8],0 of 6
NC(CSC(c1ccccc1)(c1ccccc1)c1ccc(CBr)cc1)C(=O)O (stereo unspecified),T/C,"dose: 400.0 mg/kg/injection, schedule: Q01DX009 (ip), vehicle: other",138 % of control
CC1(C)CNC(C(=O)O)C1 (stereo unspecified),survivor count,[14],6 of 6
CCCCCC(C[N+](C)(C)C)C(O)/C=C\c1ccccc1 (stereo unspecified),survivor count,"dose: 20.0 mg/kg/injection, schedule: Q04DX003 (ip), vehicle: saline",0 of 6
COc1ccc(C(O)c2c(CN3CCCCC3)c3ccccc3n2C)cc1 (stereo unspecified),survivor count,[2],3 of 3
c1ccc(C(Nc2ccnc3nc[nH]c23)c2ccccc2)cc1,survivor count,[15],0 of 6
same,survivor count,"dose: 400.0 mg/kg/injection, schedule: Q01DX001 (ip), vehicle: saline with Tween-80",0 of 6
IP(c1ccccc1)(c1ccccc1)(c1ccccc1)N1C2CCCCC21 (stereo unspecified),survivor count,"dose: 2.5 mg/kg/injection, schedule: Q04DX003 (ip), vehicle: saline",1 of 6
same,survivor count,"dose: 3.74 mg/kg/injection, schedule: Q01DX009 (ip), vehicle: saline",1 of 6
same,survivor count,"dose: 5.0 mg/kg/injection, schedule: Q01DX001 (ip), vehicle: acetone",2 of 6
same,survivor count,"dose: 5.68 mg/kg/injection, schedule: Q01DX009 (ip), vehicle: saline",0 of 6
same,survivor count,"dose: 8.52 mg/kg/injection, schedule: Q01DX009 (ip), vehicle: saline",0 of 6
same,survivor count,"dose: 10.0 mg/kg/injection, schedule: Q01DX001 (ip), vehicle: saline",0 of 6
same,survivor count,"dose: 20.0 mg/kg/injection, schedule: Q01DX001 (ip), vehicle: saline",1 of 6
same,survivor count,"dose: 40.0 mg/kg/injection, schedule: Q01DX001 (ip), vehicle: saline",0 of 6
same,survivor count,[3],0 of 6
same,survivor count,[12],0 of 6
same,survivor count,[4],0 of 6
CCCCC(C)NC1=C(Cl)C(=O)c2ccccc2C1=O (stereo unspecified),survivor count,[13],5 of 6
same,survivor count,[15],5 of 6
same,survivor count,[14],5 of 6
